Literature values as cited in US20050227915A1, “Methods and reagents for treating neurodegenerative diseases and motor deficit disorders” (priority 2001, published 2005).
At least one compound was matched to its structure with a doubt left.

System: deacetylase
Conditions: cited from earlier work

CCC(=O)CCCCC[C@@H]1NC(=O)[C@H]2CCCCN2C(=O)[C@H]([C@@H](C)CC)NC(=O)[C@H](Cc2cn(OC)c3ccccc23)NC1=O [apicidin]
Effective Inhibitory Concentration Range: nM
